Measured values taken from PMC8947033.
No constants are given. Whether binding was seen depends on the method and setting. In cells and extracts the contact can be indirect. Some binding calls cover weakened binding; strength is not graded here. Where a sequence is shown, tags or fusion partners need not be part of it.

By UniProt entry, the sequences of proteins in these tests, tags left out.
UniProt Q9UKV8: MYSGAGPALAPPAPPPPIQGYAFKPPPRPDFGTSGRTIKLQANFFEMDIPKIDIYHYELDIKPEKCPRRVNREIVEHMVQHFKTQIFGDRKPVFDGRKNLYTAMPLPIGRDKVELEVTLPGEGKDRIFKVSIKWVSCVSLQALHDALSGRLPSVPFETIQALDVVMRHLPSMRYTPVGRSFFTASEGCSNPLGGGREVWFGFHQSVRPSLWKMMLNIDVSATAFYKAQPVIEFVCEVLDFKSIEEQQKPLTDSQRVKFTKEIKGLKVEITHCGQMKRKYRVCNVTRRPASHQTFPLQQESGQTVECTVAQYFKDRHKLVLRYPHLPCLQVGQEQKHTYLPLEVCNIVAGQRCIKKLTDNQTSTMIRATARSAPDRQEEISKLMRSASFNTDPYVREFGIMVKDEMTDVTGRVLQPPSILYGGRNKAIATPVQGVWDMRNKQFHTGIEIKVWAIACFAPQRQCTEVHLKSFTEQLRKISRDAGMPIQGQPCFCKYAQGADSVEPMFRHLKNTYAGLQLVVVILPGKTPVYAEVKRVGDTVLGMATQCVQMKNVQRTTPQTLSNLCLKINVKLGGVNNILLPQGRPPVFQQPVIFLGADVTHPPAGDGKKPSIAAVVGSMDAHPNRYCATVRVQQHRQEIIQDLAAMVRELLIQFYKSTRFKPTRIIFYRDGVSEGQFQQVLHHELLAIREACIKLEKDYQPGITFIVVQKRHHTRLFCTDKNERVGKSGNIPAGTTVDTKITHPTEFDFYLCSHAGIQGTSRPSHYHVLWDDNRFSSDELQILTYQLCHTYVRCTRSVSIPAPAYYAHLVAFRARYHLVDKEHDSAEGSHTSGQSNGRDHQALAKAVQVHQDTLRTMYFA

Target: T1, Myc-SERBP1 (UniProt Q8NC51)
T1 sequence: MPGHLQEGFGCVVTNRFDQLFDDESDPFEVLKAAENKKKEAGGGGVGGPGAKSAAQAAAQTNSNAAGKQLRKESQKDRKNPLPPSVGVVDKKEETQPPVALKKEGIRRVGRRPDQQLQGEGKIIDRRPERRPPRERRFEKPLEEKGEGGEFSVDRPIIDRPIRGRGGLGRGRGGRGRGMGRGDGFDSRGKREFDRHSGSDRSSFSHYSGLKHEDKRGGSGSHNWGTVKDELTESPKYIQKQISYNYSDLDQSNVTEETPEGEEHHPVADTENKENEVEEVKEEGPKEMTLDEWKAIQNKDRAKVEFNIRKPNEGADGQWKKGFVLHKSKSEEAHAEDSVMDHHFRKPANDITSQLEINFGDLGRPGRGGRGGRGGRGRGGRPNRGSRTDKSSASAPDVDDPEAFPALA
Assay: co-IP; SH-SY5Y cells co-transfected with Myc-SERBP1 and FLAG-Ago2 (control: Myc tag only and FLAG-Ago2); IP with anti-Myc agarose beads, elution, Western blot with anti-FLAG antibody

## FLAG-hAGO2 (human Argonaute2) (from UniProt Q9UKV8 1-859)
  binding: binds
